The target of one series is T1, LHX4 V75I (UniProt Q969G2).
T1 sequence (looked up, limits assumed): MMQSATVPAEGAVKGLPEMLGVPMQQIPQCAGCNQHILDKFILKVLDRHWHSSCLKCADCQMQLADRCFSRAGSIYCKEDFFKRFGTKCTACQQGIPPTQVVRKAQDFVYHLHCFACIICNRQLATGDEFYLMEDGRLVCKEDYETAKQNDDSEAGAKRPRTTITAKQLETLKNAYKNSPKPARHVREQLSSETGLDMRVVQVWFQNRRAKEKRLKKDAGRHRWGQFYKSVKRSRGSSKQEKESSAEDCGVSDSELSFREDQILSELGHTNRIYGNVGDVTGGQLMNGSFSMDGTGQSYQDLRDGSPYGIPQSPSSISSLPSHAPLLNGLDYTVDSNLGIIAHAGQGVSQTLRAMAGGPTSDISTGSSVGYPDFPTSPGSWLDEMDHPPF
Kind of series: EMSA. As to conditions: similar or slightly higher efficiency than WT; LightShift chemiluminescent EMSA kit (Pierce), per manufacturer; pH and temperature not stated; protein in a lysate after overexpression.

Another series deals with T2, LHX4 wild type (UniProt Q969G2).
T2 sequence (looked up, limits assumed): T1 sequence (looked up, limits assumed) with I75V
The experiment in a line: EMSA. As to conditions: competed by 200x cold competitor; LightShift chemiluminescent EMSA kit (Pierce), per manufacturer; pH and temperature not stated; protein in a lysate after overexpression.

Residue numbers refer to the chain shown, from its start. The exact form of at least one protein or probe is not confirmed. Where cells or extracts were used, other partners may take part. Protein sequences can lack the tags named with them.

As for “GTATGAATCATTAATTGACAACATATTTTC (double strand) [LHX4 EMSA probe]”, the binding result with LHX4 V75I and in the series with LHX4 wild type was “binds” throughout.
